{
  "source": "patent US5304551A",
  "about": "“Anti-fungal compounds” (British Technology Group Limited, priority 1990, dated 1994)",
  "key": {"[1]": {"tested_on": "M. audonii", "assay": "Testing of dodecyl sulphate, M. audonii", "type": "cell-based"}, "[2]": {"tested_on": "T. mentagrophytes", "assay": "Testing of dodecyl sulphate, T. mentagrophytes", "type": "cell-based", "settings": "combined with bile salts"}},
  "note": "At least one compound was matched to its structure with a doubt left.",
  "data": [
    {"compound": "CCCCCCCCCCCCOS(=O)(=O)O", "note": "[dodecyl sulphate]", "values": [
      {"measurement": "activity against M. audonii (in words)", "setting": "[1]", "result": "had activity"},
      {"measurement": "additivity in activity with bile salts, M. audonii", "setting": "[1]; combined with bile salts", "result": "at least additive"},
      {"measurement": "additivity in activity with bile salts, T. mentagrophytes", "setting": "[2]", "result": "at least additive"}
    ]}
  ]
}
